Reference: PubChem BioAssay AID1259354 (Paczesny and Yang Labs, IUPUI and University of Michigan, 2018)
Where “and” joins values, the source holds several entries; their conditions need not be identical. Identical values can stand only once. Screen size: about 78,000 compounds; about 1,800 (2.3%) were called active. Inconclusive means that the source gave no clear call. Such entries were picked first, then a sample of the others. Rule as the data show it: active = inhibition above about 30%; inconclusive = mostly about 10% to 28%; inactive = weaker than that.

Amino acid sequences for entries named in this document (tags omitted). A change or cut given only in a name is not applied to a line headed by its entry.
UniProt Q01638: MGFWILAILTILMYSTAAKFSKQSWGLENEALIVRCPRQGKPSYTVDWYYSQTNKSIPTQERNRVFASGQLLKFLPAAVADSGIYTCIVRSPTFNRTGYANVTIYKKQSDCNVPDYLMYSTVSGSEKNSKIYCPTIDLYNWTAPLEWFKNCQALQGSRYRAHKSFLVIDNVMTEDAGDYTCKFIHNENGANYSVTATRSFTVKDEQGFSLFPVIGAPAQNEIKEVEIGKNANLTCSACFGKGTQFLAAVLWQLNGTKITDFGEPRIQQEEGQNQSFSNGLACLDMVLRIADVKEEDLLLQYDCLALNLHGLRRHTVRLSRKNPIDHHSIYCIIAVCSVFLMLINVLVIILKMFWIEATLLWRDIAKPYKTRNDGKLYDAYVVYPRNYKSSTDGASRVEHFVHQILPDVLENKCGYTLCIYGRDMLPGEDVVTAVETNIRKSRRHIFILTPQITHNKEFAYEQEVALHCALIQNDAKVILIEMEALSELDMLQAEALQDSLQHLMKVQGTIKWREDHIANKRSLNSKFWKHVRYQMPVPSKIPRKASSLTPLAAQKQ

Molecular target: Interleukin-1 receptor-like 1 (Homo sapiens) (UniProt Q01638)
Test: blocks human ST2 binding to IL-33, primary screen, biochemical, AlphaLISA (AID 1259354)
Conditions: AlphaLISA ST2-Fc/biotin-IL-33 interaction, 1 h; at 17 µM, hits give high values

Question: For `O=C(c1cn[nH]c1-c1ccccc1)N1CCc2c(nc[nH]c2=O)C1`, which inhibition is on record?
Answer: inactive

Question: For `COc1ccc(N2C(=O)CC(SCC(=O)O)C2=O)cc1` (stereo unspecified), which inhibition is on record?
Answer: inconclusive: 11%

Question: How did the inhibition turn out when `Cc1ccc(Cn2c(CNS(=O)(=O)c3ccccc3)nc3cccnc32)cc1` was run?
Answer: inconclusive: 15%

Question: How did the inhibition turn out when `N#CC1=C(N)C(C#N)(C#N)C(c2ccc(Cl)c(Cl)c2)C2CCCC=C12` (stereo unspecified) was run?
Answer: inactive

Question: `CNC(=O)c1cc2c(=O)n3ccccc3nc2n(C(C)C)c1=N` was tested. Which inhibition did it give?
Answer: inactive

Question: For `Cc1ccncc1-c1cccc2ccnn12`, which inhibition is on record?
Answer: inactive

Question: `O=C(NCc1ccccc1)c1cc(-c2ccncc2)nc2ccccc12` was tested. Which inhibition did it give?
Answer: inconclusive: 12%

Question: `CC(=O)N1N=C(c2ccc(Cl)cc2)OC12CCCCC2` was tested. Which inhibition did it give?
Answer: inactive

Question: How did the inhibition turn out when `CN1C(=O)C2(CCN(C(=O)COCC3CCCCO3)CC2)c2ccccc21` (stereo unspecified) was run?
Answer: inconclusive: 13%

Question: `CC1(C)CC(=O)c2c(nc3ccccc3c2NCc2ccc(Cl)cc2)C1` was tested. Which inhibition did it give?
Answer: inconclusive: 23%

Question: Which inhibition does the source give for `O=C(NCC1Cc2c(F)ccc(-c3ccncc3)c2O1)c1cc(Cl)ccc1F` (stereo unspecified) here?
Answer: inconclusive: 20%

Question: `CC1=NN(c2ccccc2)C(=O)/C1=C/c1ccc2c(c1)OCO2` was tested. Which inhibition did it give?
Answer: inconclusive: 19%

Question: For `O=S1(=O)N=C(c2cccc(Cl)c2)Nc2ccccc21`, which inhibition is on record?
Answer: inactive

Question: Which inhibition does the source give for `Cc1cc(C)n(Cc2cc(C(=O)N3CCSCC3)n[nH]2)n1` here?
Answer: inconclusive: 16%

Question: Which inhibition does the source give for `O=C(c1ccsc1)N1CCN(C(=O)c2cccs2)CC1` here?
Answer: inconclusive: 11%

Question: Which inhibition does the source give for `COc1ccccc1C(=O)Nc1ccc(-c2nc3cc(Cl)ccc3o2)cc1` here?
Answer: inconclusive: 27%

Question: How did the inhibition turn out when `O=C(CCC1CCN(C(=O)C2=CCCCC2)CC1)Nc1ccccc1` was run?
Answer: inactive

Question: With `CC(C)(C)C1=Nn2c(nnc2-c2ccc(Cl)cc2Cl)SC1` as the compound, how does the inhibition read?
Answer: inactive

Question: With `Cc1cccc2[nH]c(CCNC(=O)c3ccccc3-c3ncc[nH]3)nc12` as the compound, how does the inhibition read?
Answer: inconclusive: 16%

Question: How did the inhibition turn out when `Cc1ccc(C)n1CCN1CCN(CC(=O)Nc2ccccc2F)CC1` was run?
Answer: inactive

Question: Which inhibition does the source give for `CC1=C(C(=O)Nc2ccc(C)cc2)C(c2ccc(Br)cc2)n2ncnc2N1` (stereo unspecified) here?
Answer: inconclusive: 13%

Question: How did the inhibition turn out when `O=C1c2[nH]nc(-c3ccccc3)c2C(c2ccc(O)cc2)N1c1ccccc1` (stereo unspecified) was run?
Answer: inactive

Question: Which inhibition does the source give for `O=c1oc2ccccc2cc1-c1csc(-c2cc3ccc(O)cc3oc2=O)n1` here?
Answer: inconclusive: 24%

Question: For `Cc1ccc(S(=O)(=O)N2CCN(c3ccccc3)CC2)cc1[N+](=O)[O-]`, which inhibition is on record?
Answer: active: 40%

Question: `O=C(Nc1cc2cc([N+](=O)[O-])ccc2oc1=O)c1ccc(F)cc1` was tested. Which inhibition did it give?
Answer: inconclusive: 12%

Question: How did the inhibition turn out when `O=C(NCC1CCCO1)c1cc2nc(-c3ccco3)cc(C(F)(F)Cl)n2n1` (stereo unspecified) was run?
Answer: inconclusive: 20%

Question: `CC(NC(=O)c1ccc(Cl)cc1)C1CC2CCC1C2` (stereo unspecified) was tested. Which inhibition did it give?
Answer: inactive

Question: Which inhibition does the source give for `Cn1cnnc1SCC(=O)NC1CC(=O)N(C2CCCCCC2)C1` (stereo unspecified) here?
Answer: inactive

Question: `COc1cccc(CC2CN(c3cc(OC)nc(OC)n3)CCO2)c1` (stereo unspecified) was tested. Which inhibition did it give?
Answer: inactive

Question: For `Cc1cnccc1NCCNC1CCSCC1`, which inhibition is on record?
Answer: inconclusive: 13%

Question: Which inhibition does the source give for `N#Cc1ccc(Oc2ccc(N)cc2)cc1` here?
Answer: inconclusive: 10%

Question: How did the inhibition turn out when `CCC(=O)Nc1ccc(Nc2nc(C)cc(N(C)C)n2)cc1` was run?
Answer: inconclusive: 23%

Question: For `CCN(CCCNc1ncnc2nc[nH]c12)c1cccc(C)c1`, which inhibition is on record?
Answer: inconclusive: 18%

Question: For `CCOc1cc(O)c(-c2n[nH]c(C)c2-c2ccc(F)cc2)cc1CC`, which inhibition is on record?
Answer: inconclusive: 14%

Question: With `Cc1cnc(-c2nccn2CCC(=O)Nc2ccc(F)c(C)c2)[nH]1` as the compound, how does the inhibition read?
Answer: inconclusive: 22%

Question: How did the inhibition turn out when `Cn1cc(C(=O)N2CCCC(O)(CO)CC2)c2ccccc21` (stereo unspecified) was run?
Answer: inactive

Question: With `CNC(=O)c1ccc(CN2CCC(N3CCCC3=O)CC2)o1` as the compound, how does the inhibition read?
Answer: inconclusive: 14%

Question: With `Cc1ccc(-c2ncccc2O)cc1[N+](=O)[O-]` as the compound, how does the inhibition read?
Answer: inactive

Question: How did the inhibition turn out when `CCC1CCCCN1CCNS(=O)(=O)c1cccc2cccnc12` (stereo unspecified) was run?
Answer: inactive

Question: `COCCNC(=O)c1ccc2c(c1)N(C)C(CC(=O)N1CC=CCC1)CO2` (stereo unspecified) was tested. Which inhibition did it give?
Answer: inconclusive: 13%

Question: How did the inhibition turn out when `O=C(C1CCN(c2ccc(-c3cccs3)nn2)CC1)N1CCOCC1` was run?
Answer: inconclusive: 10%

Question: How did the inhibition turn out when `CCc1nc(C)c(C(=O)N2CCOC(Cc3ccc(F)cc3)C2)o1` (stereo unspecified) was run?
Answer: inactive

Question: How did the inhibition turn out when `COc1ccccc1S(=O)(=O)Cc1ccc(C(=O)N2CCN(c3ccccn3)CC2)o1` was run?
Answer: inconclusive: 12%

Question: For `O=C(c1nn2cc(Br)cnc2c1Br)N1CCOCC1`, which inhibition is on record?
Answer: inactive

Question: How did the inhibition turn out when `CCCOc1ccc(C2C3CN(C)CC=C3C(C#N)=C(N)C2(C#N)C#N)cc1OCC` (stereo unspecified) was run?
Answer: inconclusive: 16%

Question: With `COc1ccc(CC(=O)NCC2CCCN(C(=O)c3ccc4c(c3)OCO4)C2)cc1` (stereo unspecified) as the compound, how does the inhibition read?
Answer: inconclusive: 18%

Question: With `COc1ccc(/C=C2\C(=O)N(c3cccc(Cl)c3)N=C2C)cc1[N+](=O)[O-]` as the compound, how does the inhibition read?
Answer: inconclusive: 13%

Question: How did the inhibition turn out when `Brc1cc2c(cc1C(N1CCOCC1)N1CCOCC1)OCO2` was run?
Answer: inactive

Question: With `COc1ccccc1C1Nc2ccc3ncccc3c2C2=C1C(=O)CCC2` (stereo unspecified) as the compound, how does the inhibition read?
Answer: inconclusive: 28% and inconclusive: 10%

Question: How did the inhibition turn out when `Cc1nn(C(=O)c2ccco2)c(C)c1Sc1ccc([N+](=O)[O-])cc1` was run?
Answer: inconclusive: 13%

Question: For `COc1ccccc1-n1cc(C(=O)N2CCC3(CN(C)C(=O)O3)C2)cn1` (stereo unspecified), which inhibition is on record?
Answer: inconclusive: 13%

Question: Which inhibition does the source give for `COc1ccc(Br)cc1/C=C1/SC(N2CCCC2)=NC1=O` here?
Answer: inconclusive: 15%

Question: `COCCOC(=O)c1c(C)oc2ccc(OCc3ccc(Cl)cc3)cc12` was tested. Which inhibition did it give?
Answer: inactive

Question: `NC1CCCN(C(=O)c2cc(=O)[nH]c3cc(F)ccc23)CC1` (stereo unspecified) was tested. Which inhibition did it give?
Answer: inconclusive: 13%

Question: For `CCNC(=O)O[C@@H]1CO[C@H]2[C@@H]1OC[C@@H]2NC(=S)Nc1cccc(C(=O)OC)c1`, which inhibition is on record?
Answer: active: 34%

Question: With `COc1cc(O)c2c(=O)c(O[C@@H]3O[C@H](CO)[C@@H](O)[C@H](O)[C@H]3O[C@@H]3OC[C@@H](O)[C@H](O)[C@H]3O)c(-c3ccc(O)c(O)c3)oc2c1` as the compound, how does the inhibition read?
Answer: inconclusive: 20%

Question: For `O=C(C(=O)N1CCOC(Cc2ccccc2Cl)C1)c1cccnc1` (stereo unspecified), which inhibition is on record?
Answer: inactive

Question: With `COC(=O)c1c(S(=O)(=O)N2CCCCCCC2)sc2c1CCN(C(=O)CSC)C2` as the compound, how does the inhibition read?
Answer: inactive

Question: With `C[C@H]1[C@@H]2[C@@H](O)[C@H]([C@H](C)C(=O)NC3CC3)CC[C@@]2(C)CC[C@@H]1NC(=O)C1CC1` as the compound, how does the inhibition read?
Answer: inconclusive: 13%

Question: `COc1ccc(/C=C/C(=O)n2cc(C)nc2C)cc1OC` was tested. Which inhibition did it give?
Answer: inconclusive: 11%

Question: Which inhibition does the source give for `CCCc1nnc(C(=O)N(C)Cc2ncc[nH]2)o1` here?
Answer: inconclusive: 15%
